# Laboratory results taken from PubChem BioAssay AID624291 (National Center for Advancing Translational Sciences (NCATS), 2012).
# Hit rate of the full screen: of about 350,000 compounds, about 220 (0.063%) were called active. Inconclusive means that the source gave no clear call. Such entries were picked first, then a sample of the others. Calls come from the whole dose curve; as a rule, active = well fitted activation curve with a large enough effect; inconclusive = small, poorly fitted or top-dose-only effect; inactive = no such curve, though single readings can be large or run the other way. Where the call is inconclusive, the potency comes from a doubtful curve fit.
# Experiment: qHTS for Activators of Integrin-Mediated Alleviation for Muscular Dystrophy; note: nearly all actives have a fitted effect of over 60% in size;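 for activation: 100% = response of the positive control SU9516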
# Conditions: alpha7betagal myoblasts, beta-gal FDG fluorescence, 48 h; activation: at 38.3 µM (top of the series)
# Procedure, shortened: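 Alpha7betagal+/- myoblasts (passage 13) were plated 16-24 hr, then exposed to compounds (1:260 dilution of DMSO stock) for 48 hours at 37C. After MPER lysis, β-galactosidase reporter activity was read as FDG fluorescence (ex 480/em 540) after 30 minutes.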
# Potency is the fitted concentration of half-maximal effect.
Compound,Potency,activation
Cc1nc(NC(=O)CN2CCCCC2)sc1C(=O)N(C)C,"inconclusive: 3.16 µM [activator, single point]",–
C=CCNC(=O)NC(=O)COC(=O)CC(NC(N)=O)c1ccc(Cl)cc1 (centres undefined),"inconclusive: 2.82 µM [activator, single point]",–
C=C1SC(=Nc2ccccc2Cl)N(C(=O)c2sc3ccccc3c2Cl)C1(C)C,"inconclusive: 1.58 µM [activator, partial curve, poor fit]",–
COC(=O)c1cc(S(=O)(=O)N2CCCCCC2)cn1C,–,inactive: -18%
CCCn1c(N2CCN(C(=O)Nc3ccc(Cl)cc3)CC2)nc2ccccc21,"inconclusive: 2.82 µM [activator, single point]",–
CCOc1ccccc1N1CCN(C(=S)NCc2ccccc2)CC1,"inconclusive: 5.01 µM [activator, single point]",–
C=CCNCCOc1c(C)cc(C)cc1Cl,–,inactive: 0.207%
COC(=O)c1c(C)[nH]c(-c2csc(N)n2)c1C,–,inactive: -2.13%
O=C(CN1CCOCC1)Nc1cc(C(F)(F)F)ccc1Cl,–,inactive: 12.6%
CCN(CC)C(=O)CSc1nc(O)c(Cc2ccccc2)c(=O)n1-c1ccccc1C,"inconclusive: 10 µM [activator, single point]",–
CN1C(=O)C(CC(=O)Nc2ccccc2)S/C1=N/c1nccs1 (centres undefined),"inconclusive: 4.47 µM [activator, single point]",–
COCc1cc(N2CCCCC2)nc(-c2ccccc2)n1,–,inactive: -2.46%
COc1ccc(C(=O)NC2CCCc3ccccc32)cc1Br (centres undefined),–,inactive: -11.8%
CC1CN(C(=O)N2c3ccccc3Sc3ccccc32)C(C)CC1=O (centres undefined),"inconclusive: 10 µM [activator, partial curve, poor fit]",–
CC(C)c1ccccc1OCC(O)CN1CCN(S(=O)(=O)c2ccc([N+](=O)[O-])cc2)CC1 (centres undefined),"inconclusive: 1 µM [activator, full curve, poor fit]",–
Cc1ccc(C)c(C(=O)COC(=O)Cn2c(C)csc2=O)c1,"inconclusive: 4.47 µM [activator, single point]",–
CCC(CNC(=O)c1c(C)nn(-c2ccccc2)c1Cl)c1ccccc1 (centres undefined),–,inactive: 2.42%
CCOc1ccc2c(c1)sc(N)[n+]2Cc1cc(C)cc2cccnc12,–,inactive: -57.6%
O=C(NCc1nc(-c2ccc(C(F)(F)F)cc2)no1)Nc1cc(Cl)cc(Cl)c1,"inconclusive: 15.8 µM [activator, single point]",–
Cc1ccccc1NC(=O)CN1C(=S)NC(C)(C)CC1C (centres undefined),–,inactive: -11.8%
O=C(CCC(=O)Nc1ccc(F)cc1)N/N=C/c1ccc(O)cc1O,–,inactive: 3.31%
Cc1ccc(S(=O)(=O)/N=C2/NC(=O)/C(=C/c3cc([N+](=O)[O-])ccc3O)S2)cc1,"inconclusive: 28.2 µM [activator, single point]",–
Cc1ccc(CCNC(=O)C2CCN(S(=O)(=O)c3cccc4nsnc34)CC2)cc1,"inconclusive: 2.82 µM [activator, partial curve, poor fit]",–
CC1=CC(C)(C)N(C(=O)CN2C(=O)CCC2=O)c2ccccc21,"inconclusive: 0.501 µM [activator, full curve, poor fit]",–
C[N+](C)=C1SCC(C)(/C=N/O)S1 (centres undefined),"inconclusive: 17.8 µM [activator, partial curve, poor fit]",–

Compound,Potency,activation
CCN1CCN(CCC(=O)Nc2cc(OC)cc(OC)c2)CC1,–,inactive: -8.66%
COc1ccccc1OCC(O)Cn1nc(C)cc1C (centres undefined),"inconclusive: 1.26 µM [activator, partial curve, poor fit]",–
O=C(NCC1(c2ccccc2)CCCC1)c1ccccc1Br,–,inactive: -16%
COc1ccccc1N1CCN(C(=O)c2oc3ccc(F)cc3c2C)CC1,–,inactive: 1.04%
Cc1ccc(Nc2ncc3c(n2)CC(C)(C)CC3=O)cc1,–,inactive: 3.16%
CC1(C)CC(=NNC(=O)c2n[nH]c3c2CCC3)CC(C)(C)N1,"inconclusive: 28.2 µM [activator, single point]",–
CCOC(=O)C1(Cc2ccccc2)C(=O)Nc2ccccc21 (centres undefined),"inconclusive: 5.01 µM [activator, single point]",–
O=C(N=C1SC2CS(=O)(=O)CC2N1c1ccc(OC(F)(F)F)cc1)C1CC1 (centres undefined),"inconclusive: 0.708 µM [activator, partial curve, poor fit]",–
COc1ccccc1/C=N/NC(=O)Cn1cnc([N+](=O)[O-])n1,"inconclusive: 10 µM [activator, single point]",–
CCCN1C(=O)S/C(=C/c2ccc(N3CCOCC3)o2)C1=O,–,inactive: -7.31%
COc1ccc(CCNc2nc(C)cc(C)c2C#N)cc1OC,"inconclusive: 5.01 µM [activator, single point]",–
CC(C)Cc1nc(N2CCN(C(=O)c3ccccc3)CC2)c(C#N)c2c1CCC2,–,inactive: 29.1%
COc1ccc(CNC(=O)C(C)n2ccc3cc(S(=O)(=O)N4CCCCCC4)ccc32)cc1 (centres undefined),"inconclusive: 28.2 µM [activator, single point]",–
COc1cc(/C=N/Nc2ccc(C(=O)O)cc2)ccc1O,–,inactive: 15.5%
O=S(=O)(Nc1cccc(-c2nnco2)c1)c1ccc(F)cc1F,"inconclusive: 28.2 µM [activator, single point]",–
O=C(/C=C/c1ccc(OCc2ccccc2)c(OCc2ccccc2)c1)c1cccnc1,–,inactive: -40.3%
COc1ccc(CNC(=O)c2ccc(NS(=O)(=O)c3ccc4[nH]c(=O)[nH]c4c3)cc2)cc1OC,"inconclusive: 28.2 µM [activator, single point]",–
Cc1nn2c(-c3ccc(S(=O)(=O)N4CCN(C)CC4)o3)nnc2c2ccccc12,"inconclusive: 5.01 µM [activator, single point]",–
Cc1cccc(NC(=O)CN(CC2CCCO2)C(=O)c2oc3ccccc3c2C)c1C (centres undefined),"inconclusive: 28.2 µM [activator, single point]",–
CC(=O)c1cccc(NCC(=O)c2ccc(C)c([N+](=O)[O-])c2)c1,"inconclusive: 1.58 µM [activator, single point]",–
Cc1ccc(S(=O)(=O)NCCOc2nc(N(C)C)nc(N(C)C)n2)cc1,"inconclusive: 0.398 µM [activator, partial curve, poor fit]",–
CCOC(=O)C1(CCOC)CCN(Cc2ccc3nonc3c2)CC1,"inconclusive: 3.55 µM [activator, partial curve, poor fit]",–
CCCNC(=O)c1ccc(COc2ccc(C(C)(C)C)cc2)o1,–,inactive: -25.3%
CC12CCCCC1c1ccccc1C(=NCC(=O)O)N2 (centres undefined),"inconclusive: 3.98 µM [activator, single point]",–
COc1ccc(S(=O)(=O)NNC(=O)c2ccc([N+](=O)[O-])cc2)cc1,"inconclusive: 0.501 µM [activator, full curve, poor fit]",–

# Taken from above.
# In activation, O=C(NCC1(c2ccccc2)CCCC1)c1ccccc1Br is listed with inactive: -16%
# In activation, Cc1ccc(Nc2ncc3c(n2)CC(C)(C)CC3=O)cc1 is listed with inactive: 3.16%
# In Potency, COc1ccccc1OCC(O)Cn1nc(C)cc1C (centres undefined) is listed with inconclusive: 1.26 µM [activator, partial curve, poor fit]

# Continued.

Compound,Potency,activation
COc1ccccc1CNC(=O)CCCc1nnc2n(C)c(=O)c3sccc3n12,–,inactive: 17.7%
C/C(=N\NC(=O)c1ccccc1)c1ccc(NC(=O)c2cccs2)cc1,–,inactive: 5.98%
O=c1[nH]c(CCl)nc2cc(-c3ccc(F)cc3)sc12,–,inactive: -59.2%
Nc1c(C(=O)Nc2cccc(C(=O)O)c2)sc2nc3c(cc12)CCCC3,–,inactive: 6.51%
O=C(COC(=O)c1ccc(NS(=O)(=O)c2cccs2)cc1O)Nc1nc2ccccc2s1,"inconclusive: 1 µM [activator, single point]",–
CCOC(=O)C1CCN(Cc2ccc(C(=O)OC)cc2)CC1,–,inactive: 4.58%
O=C(O)C1CCCCC1C(=O)NCc1ccccn1 (centres undefined),"inconclusive: 5.62 µM [activator, partial curve, poor fit]",–
Nc1c(S(=O)(=O)c2ccccc2)c2nc3ccccc3nc2n1Cc1ccco1,–,inactive: 0% [at 7.66 µM]
COc1cc(CN2CCCC(C(=O)c3ccc(SC)cc3)C2)cc(Cl)c1O (centres undefined),"inconclusive: 2.82 µM [activator, partial curve, poor fit]",–
CC1=CC(=C(C#N)C#N)C=C(C)N1CCN1CCN(C(=O)Nc2ccc(Cl)c(Cl)c2)CC1,–,inconclusive: -22.4% [activator]
C[C@]12c3[nH]c4cc(-c5ccco5)ccc4c3CCN1C(=O)[C@@H](CC(=O)NCCN1CCOCC1)C[C@@H]2C(=O)N1CCOCC1,–,inactive: 14.2%
Cc1cc2ccccc2c(=O)n1CC(=O)NCCC1=CCCCC1,–,inactive: 4.45%
COc1ccc(Cc2nc3ccc(C(=O)NCCCSC)cc3o2)cc1OC,"inconclusive: 28.2 µM [activator, single point]",–
CC1=NN(c2ccccc2)C(=O)/C1=C/c1cn(C)c2ccccc12,"inconclusive: 10 µM [activator, partial curve, poor fit]",–
C[C@H](CO)N1C[C@H](C)[C@@H](CN(C)C(=O)NC2CCCCC2)Oc2c(NC(=O)C3CCCCC3)cccc2C1=O,–,inactive: -18.8%
CC(=O)c1cn(CCOc2ccccc2C)c2ccccc12,–,inactive: -56.4%
Cc1c(Cl)cccc1NS(=O)(=O)c1cccc2nsnc12,"inconclusive: 3.16 µM [activator, single point]",–
CCC(=O)OC1(C(C)=O)CCC2C3CCC4=CC(=O)CCC4(C)C3CCC21C (centres undefined),–,inactive: 10.9%
CC1CC(=O)c2c(cc3c(-c4c(O)cc(O)c5c(O)c6c(cc45)OC(C)CC6=O)c(O)cc(O)c3c2O)O1 (centres undefined),–,inactive: -50.1%
CC(C)OCCCNC(=O)c1ccc2c(=O)n(Cc3ccc4c(c3)OCO4)c(=S)[nH]c2c1,"inconclusive: 11.2 µM [activator, single point]",–
Cc1csc2ncnc(N3CCN(C(=S)Nc4ccc(F)cc4F)CC3)c12,–,inactive: -17.5%
N#Cc1ccccc1COc1ccc(/C=C/C(=O)O)cc1,–,inactive: 25.8%
O=C1NC(=S)N(C(=O)c2ccc(F)cc2)/C1=C/c1ccccc1,–,inactive: -18.4%
Cc1ccc(NC(=O)N2CCc3ccccc32)cc1C,"inconclusive: 6.31 µM [activator, partial curve, poor fit]",–
